Test results taken from PMC6319772.
No constants are given. Whether binding was seen depends on the method and setting. Some entries that bind do so weakly or less than the wild type.

Sequences of proteins named here, by UniProt entry; tags and fusion partners are left off.
UniProt Q9VDJ9: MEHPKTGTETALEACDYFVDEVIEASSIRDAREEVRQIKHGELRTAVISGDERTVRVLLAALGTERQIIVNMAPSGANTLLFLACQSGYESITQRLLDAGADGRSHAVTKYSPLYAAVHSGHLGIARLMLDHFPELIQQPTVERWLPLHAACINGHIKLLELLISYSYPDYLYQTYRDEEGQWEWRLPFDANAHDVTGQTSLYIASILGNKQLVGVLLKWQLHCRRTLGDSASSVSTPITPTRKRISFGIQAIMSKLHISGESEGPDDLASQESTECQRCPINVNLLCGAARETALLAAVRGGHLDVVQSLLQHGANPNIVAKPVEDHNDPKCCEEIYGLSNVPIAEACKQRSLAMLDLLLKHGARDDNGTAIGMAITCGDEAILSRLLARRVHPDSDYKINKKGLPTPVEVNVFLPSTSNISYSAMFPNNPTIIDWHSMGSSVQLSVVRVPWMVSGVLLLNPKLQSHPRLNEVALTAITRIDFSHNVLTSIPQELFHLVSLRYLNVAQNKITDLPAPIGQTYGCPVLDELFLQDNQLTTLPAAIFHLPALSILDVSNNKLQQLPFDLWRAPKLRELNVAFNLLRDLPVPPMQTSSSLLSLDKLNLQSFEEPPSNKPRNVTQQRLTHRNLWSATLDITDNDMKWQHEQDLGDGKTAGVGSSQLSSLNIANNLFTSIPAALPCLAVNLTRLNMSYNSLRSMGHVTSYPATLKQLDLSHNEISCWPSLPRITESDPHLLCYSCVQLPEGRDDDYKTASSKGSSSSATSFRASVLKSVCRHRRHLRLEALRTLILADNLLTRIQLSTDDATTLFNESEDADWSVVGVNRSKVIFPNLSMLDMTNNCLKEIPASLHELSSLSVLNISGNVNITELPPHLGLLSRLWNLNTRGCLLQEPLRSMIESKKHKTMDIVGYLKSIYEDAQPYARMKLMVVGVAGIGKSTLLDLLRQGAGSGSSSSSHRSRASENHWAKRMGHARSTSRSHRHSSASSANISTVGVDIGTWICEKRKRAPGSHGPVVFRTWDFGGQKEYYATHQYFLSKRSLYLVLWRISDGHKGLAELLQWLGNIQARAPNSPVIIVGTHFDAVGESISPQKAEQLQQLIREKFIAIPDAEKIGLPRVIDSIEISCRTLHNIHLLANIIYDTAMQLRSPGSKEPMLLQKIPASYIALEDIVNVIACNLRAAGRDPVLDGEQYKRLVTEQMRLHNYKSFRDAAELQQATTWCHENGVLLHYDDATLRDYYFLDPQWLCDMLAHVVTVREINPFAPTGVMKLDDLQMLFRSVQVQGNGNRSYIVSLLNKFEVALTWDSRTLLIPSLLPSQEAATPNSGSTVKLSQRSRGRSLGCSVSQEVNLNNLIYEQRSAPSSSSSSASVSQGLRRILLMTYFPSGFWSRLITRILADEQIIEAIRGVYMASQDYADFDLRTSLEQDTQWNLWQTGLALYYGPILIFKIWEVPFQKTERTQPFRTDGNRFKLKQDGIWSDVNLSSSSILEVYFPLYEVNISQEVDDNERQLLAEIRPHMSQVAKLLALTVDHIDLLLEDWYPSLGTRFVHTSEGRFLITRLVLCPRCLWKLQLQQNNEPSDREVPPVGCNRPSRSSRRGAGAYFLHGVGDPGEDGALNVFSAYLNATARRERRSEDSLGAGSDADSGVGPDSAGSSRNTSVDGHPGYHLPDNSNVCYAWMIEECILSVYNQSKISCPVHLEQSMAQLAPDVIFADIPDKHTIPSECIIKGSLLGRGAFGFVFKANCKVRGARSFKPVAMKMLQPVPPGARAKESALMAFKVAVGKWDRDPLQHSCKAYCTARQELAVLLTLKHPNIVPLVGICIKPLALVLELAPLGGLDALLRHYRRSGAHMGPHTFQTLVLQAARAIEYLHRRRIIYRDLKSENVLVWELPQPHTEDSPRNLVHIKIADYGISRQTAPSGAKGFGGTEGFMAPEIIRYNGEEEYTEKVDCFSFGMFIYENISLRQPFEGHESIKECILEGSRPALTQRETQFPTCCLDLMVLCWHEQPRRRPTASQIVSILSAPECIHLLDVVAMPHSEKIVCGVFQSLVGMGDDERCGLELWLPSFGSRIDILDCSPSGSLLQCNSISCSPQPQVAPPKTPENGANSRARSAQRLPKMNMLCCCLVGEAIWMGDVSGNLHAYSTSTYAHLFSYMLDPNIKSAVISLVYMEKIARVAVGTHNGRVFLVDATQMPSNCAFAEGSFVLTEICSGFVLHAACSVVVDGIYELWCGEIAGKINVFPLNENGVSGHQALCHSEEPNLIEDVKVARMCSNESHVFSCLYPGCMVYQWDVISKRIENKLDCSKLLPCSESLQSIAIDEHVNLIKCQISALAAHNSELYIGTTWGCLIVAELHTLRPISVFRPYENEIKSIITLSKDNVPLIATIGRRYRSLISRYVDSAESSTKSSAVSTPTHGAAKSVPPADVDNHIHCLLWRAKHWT

Target: HA-tagged Drosophila Lrrk expressed from its endogenous promoter (Lrrk^HA knockin) (Drosophila) (UniProt Q9VDJ9)
Experiment: native gel or EMSA; native PAGE of head lysates of flies with one Lrrk^HA allele and transgenic wild-type Lrrk or Lrrk-GS; western blot probed with anti-HA

With “HA-tagged Drosophila Lrrk expressed from its endogenous promoter (Lrrk^HA knockin) (from UniProt Q9VDJ9 1-2445) (enzyme)” the binding was “binds”.
